Experimental data reported in publication PMC10348774.
These are yes or no findings as the source states them, for the method shown. Binding seen in cells or lysates may run through a third protein. Binding can be weak; no strength is given.

Protein sequences, listed by entry. Tags and fused reporters are not part of them. Lines headed by an entry give the natural chain unless they say otherwise; changes in a name come on top.
UniProt O14672: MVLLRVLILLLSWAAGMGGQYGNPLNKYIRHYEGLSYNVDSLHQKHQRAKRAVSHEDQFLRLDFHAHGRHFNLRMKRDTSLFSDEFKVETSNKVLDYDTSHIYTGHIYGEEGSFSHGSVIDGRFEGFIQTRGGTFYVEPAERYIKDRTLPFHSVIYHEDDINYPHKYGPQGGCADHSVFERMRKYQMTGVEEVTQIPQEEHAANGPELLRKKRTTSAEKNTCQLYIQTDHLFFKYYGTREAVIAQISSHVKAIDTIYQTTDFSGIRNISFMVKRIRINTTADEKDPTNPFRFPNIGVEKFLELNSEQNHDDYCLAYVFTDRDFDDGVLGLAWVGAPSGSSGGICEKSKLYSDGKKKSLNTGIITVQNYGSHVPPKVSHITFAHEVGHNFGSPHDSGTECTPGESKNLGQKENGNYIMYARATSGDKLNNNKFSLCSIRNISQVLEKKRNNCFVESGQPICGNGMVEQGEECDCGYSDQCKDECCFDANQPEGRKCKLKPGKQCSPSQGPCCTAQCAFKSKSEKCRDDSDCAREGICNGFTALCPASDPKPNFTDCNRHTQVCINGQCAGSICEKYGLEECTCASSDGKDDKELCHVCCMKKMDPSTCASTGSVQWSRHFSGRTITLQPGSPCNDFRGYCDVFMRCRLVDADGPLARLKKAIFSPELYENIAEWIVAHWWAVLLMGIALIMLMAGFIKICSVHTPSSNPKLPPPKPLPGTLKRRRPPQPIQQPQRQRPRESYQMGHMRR
UniProt Q86TM6: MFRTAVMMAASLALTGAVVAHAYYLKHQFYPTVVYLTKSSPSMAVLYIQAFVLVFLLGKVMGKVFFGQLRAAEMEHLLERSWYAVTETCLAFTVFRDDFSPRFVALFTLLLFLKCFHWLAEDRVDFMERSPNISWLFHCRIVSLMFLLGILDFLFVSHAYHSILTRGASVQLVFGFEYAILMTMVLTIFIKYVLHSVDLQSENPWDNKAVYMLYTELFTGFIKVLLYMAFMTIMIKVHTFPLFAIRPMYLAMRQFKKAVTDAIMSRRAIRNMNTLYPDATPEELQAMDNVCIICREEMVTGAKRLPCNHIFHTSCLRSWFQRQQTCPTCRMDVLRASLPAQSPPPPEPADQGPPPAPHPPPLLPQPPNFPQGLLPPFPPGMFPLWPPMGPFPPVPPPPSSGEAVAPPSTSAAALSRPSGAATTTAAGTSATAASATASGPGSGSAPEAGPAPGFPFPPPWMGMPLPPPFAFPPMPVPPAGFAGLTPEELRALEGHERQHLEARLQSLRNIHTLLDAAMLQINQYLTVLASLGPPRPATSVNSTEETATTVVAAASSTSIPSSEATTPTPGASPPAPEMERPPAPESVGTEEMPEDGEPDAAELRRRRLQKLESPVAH

Key:
ADAM10/N278Q-Flag [1] = target: ADAM10/N278Q-Flag (UniProt O14672); experiment: proximity ligation; PLA between ADAM10-N278Q-Flag and HRD1 in cells upon Eer I or Eer I + TM treatment; foci counted
ADAM10/N278Q-Flag [2] = target: ADAM10/N278Q-Flag (UniProt O14672); experiment: co-IP; reciprocal co-IP (anti-Flag IP and IP/IB) of Flag-tagged ADAM10 mutants with endogenous proteins in SK-BR-3 cells; treatments in some panels: Eer I, Eer I + TM, HRD1 silencing

binding (ADAM10/N278Q-Flag [1]): binds
binding (ADAM10/N278Q-Flag [2]): binds
Substance: synoviolin 1 (SYVN1, also known as HRD1) (from UniProt Q86TM6 1-617) (enzyme)
